The supplement of paper PMC8728848
The other results are listed elsewhere or left out.

Assays:
Assay in all cases: glycan array binding signal (z-score within array); higher = stronger binding
Conditions in all cases: glycan notation: IUPAC condensed, linker removed
[1] = biological target: GlcNAc(b1-3)Gal(b1-3)GalNAc
In short: (§1)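 Arrays were curated from the Consortium for Functional Glycomics database, 3228 in total, and kept only where the protein sequence was available. Binding is expressed as a within-array Z-score. This score was averaged across arrays of the same protein sequence at different concentrations or buffers and across linkers, and negative values can be read as non-binding.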

GlcNAc(b1-3)Gal(b1-4)Glc = biological target: GlcNAc(b1-3)Gal(b1-4)Glc
In short: as §1

[2] = biological target: GlcNAc(b1-3)Gal(b1-4)GlcNAc
In short: as §1

[3] = biological target: GlcNAc(b1-3)Gal(b1-4)GlcNAc(b1-2)Man(a1-3)[GlcNAc(b1-3)Gal(b1-4)GlcNAc(b1-2)Man(a1-6)]Man(b1-4)GlcNAc(b1-4)GlcNAc
In short: as §1

[4] = biological target: GlcNAc(b1-3)Gal(b1-4)GlcNAc(b1-2)Man(a1-3)[GlcNAc(b1-3)Gal(b1-4)GlcNAc(b1-2)Man(a1-6)]Man(b1-4)GlcNAc(b1-4)[Fuc(a1-6)]GlcNAc
In short: as §1

[5] = biological target: GlcNAc(b1-3)Gal(b1-4)GlcNAc(b1-2)[GlcNAc(b1-3)Gal(b1-4)GlcNAc(b1-6)]Man(a1-6)[GlcNAc(b1-3)Gal(b1-4)GlcNAc(b1-2)Man(a1-3)]Man(b1-4)GlcNAc(b1-4)GlcNAc
In short: as §1

[6] = biological target: GlcNAc(b1-3)Gal(b1-4)GlcNAc(b1-3)Gal(b1-4)GlcNAc
In short: as §1

[7] = biological target: GlcNAc(b1-3)Gal(b1-4)GlcNAc(b1-3)Gal(b1-4)GlcNAc(b1-2)Man(a1-3)[GlcNAc(b1-3)Gal(b1-4)GlcNAc(b1-3)Gal(b1-4)GlcNAc(b1-2)Man(a1-6)]Man(b1-4)GlcNAc(b1-4)GlcNAc
In short: as §1

[8] = biological target: GlcNAc(b1-3)Gal(b1-4)GlcNAc(b1-3)Gal(b1-4)GlcNAc(b1-2)Man(a1-3)[GlcNAc(b1-3)Gal(b1-4)GlcNAc(b1-3)Gal(b1-4)GlcNAc(b1-2)Man(a1-6)]Man(b1-4)GlcNAc(b1-4)[Fuc(a1-6)]GlcNAc
In short: as §1

[9] = biological target: GlcNAc(b1-3)Gal(b1-4)GlcNAc(b1-3)Gal(b1-4)GlcNAc(b1-2)[GlcNAc(b1-3)Gal(b1-4)GlcNAc(b1-3)Gal(b1-4)GlcNAc(b1-6)]Man(a1-6)[GlcNAc(b1-3)Gal(b1-4)GlcNAc(b1-3)Gal(b1-4)GlcNAc(b1-2)Man(a1-3)]Man(b1-4)GlcNAc(b1-4)[Fuc(a1-6)]GlcNAc
In short: as §1

[10] = biological target: GlcNAc(b1-3)Gal(b1-4)GlcNAc(b1-3)Gal(b1-4)GlcNAc(b1-3)Gal(b1-4)GlcNAc(b1-2)Man(a1-3)[GlcNAc(b1-3)Gal(b1-4)GlcNAc(b1-3)Gal(b1-4)GlcNAc(b1-3)Gal(b1-4)GlcNAc(b1-2)Man(a1-6)]Man(b1-4)GlcNAc(b1-4)GlcNAc
In short: as §1

[11] = biological target: GlcNAc(b1-3)Gal(b1-4)GlcNAc(b1-3)Gal(b1-4)GlcNAc(b1-3)Gal(b1-4)GlcNAc(b1-2)Man(a1-3)[GlcNAc(b1-3)Gal(b1-4)GlcNAc(b1-3)Gal(b1-4)GlcNAc(b1-3)Gal(b1-4)GlcNAc(b1-2)Man(a1-6)]Man(b1-4)GlcNAc(b1-4)[Fuc(a1-6)]GlcNAc
In short: as §1

[12] = biological target: GlcNAc(b1-3)Gal(b1-4)GlcNAc(b1-3)Gal(b1-4)GlcNAc(b1-3)Gal(b1-4)GlcNAc(b1-2)[GlcNAc(b1-3)Gal(b1-4)GlcNAc(b1-3)Gal(b1-4)GlcNAc(b1-3)Gal(b1-4)GlcNAc(b1-6)]Man(a1-6)[GlcNAc(b1-3)Gal(b1-4)GlcNAc(b1-3)Gal(b1-4)GlcNAc(b1-3)Gal(b1-4)GlcNAc(b1-2)Man(a1-3)]Man(b1-4)GlcNAc(b1-4)[Fuc(a1-6)]GlcNAc
In short: as §1

[13] = biological target: GlcNAc(b1-3)Gal(b1-4)GlcNAc(b1-3)Gal(b1-4)GlcNAc(b1-3)Gal(b1-4)GlcNAc(b1-3)Gal(b1-4)GlcNAc(b1-2)Man(a1-3)[GlcNAc(b1-3)Gal(b1-4)GlcNAc(b1-3)Gal(b1-4)GlcNAc(b1-3)Gal(b1-4)GlcNAc(b1-3)Gal(b1-4)GlcNAc(b1-2)Man(a1-6)]Man(b1-4)GlcNAc(b1-4)GlcNAc
In short: as §1

[14] = biological target: GlcNAc(b1-3)Gal(b1-4)GlcNAc(b1-3)Gal(b1-4)GlcNAc(b1-3)Gal(b1-4)GlcNAc(b1-3)Gal(b1-4)GlcNAc(b1-2)Man(a1-3)[GlcNAc(b1-3)Gal(b1-4)GlcNAc(b1-3)Gal(b1-4)GlcNAc(b1-3)Gal(b1-4)GlcNAc(b1-3)Gal(b1-4)GlcNAc(b1-2)Man(a1-6)]Man(b1-4)GlcNAc(b1-4)[Fuc(a1-6)]GlcNAc
In short: as §1

[15] = biological target: GlcNAc(b1-3)Gal(b1-4)GlcNAc(b1-3)Gal(b1-4)GlcNAc(b1-3)Gal(b1-4)GlcNAc(b1-3)Gal(b1-4)GlcNAc(b1-2)[GlcNAc(b1-3)Gal(b1-4)GlcNAc(b1-3)Gal(b1-4)GlcNAc(b1-3)Gal(b1-4)GlcNAc(b1-3)Gal(b1-4)GlcNAc(b1-6)]Man(a1-6)[GlcNAc(b1-3)Gal(b1-4)GlcNAc(b1-3)Gal(b1-4)GlcNAc(b1-3)Gal(b1-4)GlcNAc(b1-3)Gal(b1-4)GlcNAc(b1-2)Man(a1-3)]Man(b1-4)GlcNAc(b1-4)[Fuc(a1-6)]GlcNAc
In short: as §1

[16] = biological target: GlcNAc(b1-3)Gal(b1-4)GlcNAc(b1-3)Gal(b1-4)GlcNAc(b1-3)GalNAc
In short: as §1

[17] = biological target: GlcNAc(b1-3)Gal(b1-4)GlcNAc(b1-3)GalNAc
In short: as §1

[18] = biological target: GlcNAc(b1-3)Gal(b1-4)GlcNAc(b1-3)[GlcNAc(b1-3)Gal(b1-4)GlcNAc(b1-3)]GalNAc
In short: as §1

[19] = biological target: GlcNAc(b1-3)Gal(b1-4)GlcNAc(b1-6)[Gal(b1-3)]GalNAc
In short: as §1

[20] = biological target: GlcNAc(b1-3)Gal(b1-4)GlcNAc(b1-6)[GlcNAc(b1-3)Gal(b1-3)]GalNAc
In short: as §1

[21] = biological target: GlcNAc(b1-3)Gal(b1-4)GlcNAc(b1-6)[GlcNAc(b1-3)]Gal(b1-4)GlcNAc
In short: as §1

GlcNAc(b1-3)GalNAc = biological target: GlcNAc(b1-3)GalNAc
In short: as §1

GlcNAc(b1-3)Man = biological target: GlcNAc(b1-3)Man
In short: as §1

[22] = biological target: GlcNAc(b1-3)[GlcNAc(b1-4)][GlcNAc(b1-6)]GlcNAc
In short: as §1

[23] = biological target: GlcNAc(b1-3)[GlcNAc(b1-6)]Gal(b1-4)GlcNAc
In short: as §1

[24] = biological target: GlcNAc(b1-3)[GlcNAc(b1-6)]GalNAc
In short: as §1

[25] = biological target: GlcNAc(b1-4)Gal(b1-4)GlcNAc
In short: as §1

GlcNAc(b1-4)GlcNAc = biological target: GlcNAc(b1-4)GlcNAc
In short: as §1

[26] = biological target: GlcNAc(b1-4)GlcNAc(b1-4)GlcNAc
In short: as §1

[27] = biological target: GlcNAc(b1-4)GlcNAc(b1-4)GlcNAc(b1-4)GlcNAc(b1-4)GlcNAc
In short: as §1

[28] = biological target: GlcNAc(b1-4)GlcNAc(b1-4)GlcNAc(b1-4)GlcNAc(b1-4)GlcNAc(b1-4)GlcNAc
In short: as §1

[29] = biological target: GlcNAc(b1-4)[GlcNAc(b1-6)]GalNAc
In short: as §1

[30] = biological target: GlcNAc(b1-6)Gal(b1-4)GlcNAc
In short: as §1

GlcNAc(b1-6)GalNAc = biological target: GlcNAc(b1-6)GalNAc
In short: as §1

[31] = biological target: GlcNAc6S(b1-3)Gal(b1-4)GlcNAc
In short: as §1

Kdn(a2-3)Gal(b1-3)GalNAc = biological target: Kdn(a2-3)Gal(b1-3)GalNAc
In short: as §1

Kdn(a2-3)Gal(b1-3)GlcNAc = biological target: Kdn(a2-3)Gal(b1-3)GlcNAc
In short: as §1

Kdn(a2-3)Gal(b1-4)Glc = biological target: Kdn(a2-3)Gal(b1-4)Glc
In short: as §1

Kdn(a2-3)Gal(b1-4)GlcNAc = biological target: Kdn(a2-3)Gal(b1-4)GlcNAc
In short: as §1

[32] = biological target: Kdn(a2-3)Gal(b1-4)[Fuc(a1-3)]GlcNAc
In short: as §1

Kdn(a2-6)Gal(b1-4)GlcNAc = biological target: Kdn(a2-6)Gal(b1-4)GlcNAc
In short: as §1

[33] = biological target: Man(a1-2)Man(a1-2)Man(a1-3)Man
In short: as §1

[34] = biological target: Man(a1-2)Man(a1-2)Man(a1-6)[Man(a1-3)]Man
In short: as §1

Man(a1-2)Man(a1-3)Man = biological target: Man(a1-2)Man(a1-3)Man
In short: as §1

B1: XTP3-B-MRH2 (Homo sapiens), Q96DZ1 (protein)
chain: EFLSGSYCFRGGVGWWKYEFCYGKHVHQYHEDKDSGKTSVVVGTWNQEEHIEWAKKNTARAYHLQDDGTQTVRMVSHFYGNGDICDITDKPRQVTVKLKCKESDSPHAVTVYMLEPHSCQYILGVESPVICKILDTA
[1]
  glycan array binding signal (z-score): 0.142
GlcNAc(b1-3)Gal(b1-4)Glc
  glycan array binding signal (z-score): 0.292
[2]
  glycan array binding signal (z-score): -0.888
[3]
  glycan array binding signal (z-score): -1.22
[4]
  glycan array binding signal (z-score): -0.246
[5]
  glycan array binding signal (z-score): 0.276
[6]
  glycan array binding signal (z-score): 1.09
[7]
  glycan array binding signal (z-score): 0.894
[8]
  glycan array binding signal (z-score): -0.842
[9]
  glycan array binding signal (z-score): 0.985
[10]
  glycan array binding signal (z-score): -1.38
[11]
  glycan array binding signal (z-score): -0.575
[12]
  glycan array binding signal (z-score): 0.022
[13]
  glycan array binding signal (z-score): -0.742
[14]
  glycan array binding signal (z-score): -0.307
[15]
  glycan array binding signal (z-score): 1.22
[16]
  glycan array binding signal (z-score): -0.328
[17]
  glycan array binding signal (z-score): -0.741
[18]
  glycan array binding signal (z-score): 0.613
[19]
  glycan array binding signal (z-score): -0.591
[20]
  glycan array binding signal (z-score): 1.89
[21]
  glycan array binding signal (z-score): -0.516
GlcNAc(b1-3)GalNAc
  glycan array binding signal (z-score): 0.262
GlcNAc(b1-3)Man
  glycan array binding signal (z-score): -1.08
[22]
  glycan array binding signal (z-score): -0.72
[23]
  glycan array binding signal (z-score): -0.392
[24]
  glycan array binding signal (z-score): 0.188
[25]
  glycan array binding signal (z-score): 0.065
GlcNAc(b1-4)GlcNAc
  glycan array binding signal (z-score): -0.456
[26]
  glycan array binding signal (z-score): -1.04
[27]
  glycan array binding signal (z-score): 0.528
[28]
  glycan array binding signal (z-score): -0.1
[29]
  glycan array binding signal (z-score): -1.48
[30]
  glycan array binding signal (z-score): 0.376
GlcNAc(b1-6)GalNAc
  glycan array binding signal (z-score): 0.959
[31]
  glycan array binding signal (z-score): -0.257
Kdn(a2-3)Gal(b1-3)GalNAc
  glycan array binding signal (z-score): -0.139
Kdn(a2-3)Gal(b1-3)GlcNAc
  glycan array binding signal (z-score): 0.111
Kdn(a2-3)Gal(b1-4)Glc
  glycan array binding signal (z-score): 1.3
Kdn(a2-3)Gal(b1-4)GlcNAc
  glycan array binding signal (z-score): 1.28
[32]
  glycan array binding signal (z-score): -0.353
Kdn(a2-6)Gal(b1-4)GlcNAc
  glycan array binding signal (z-score): -1.59
[33]
  glycan array binding signal (z-score): -0.517
[34]
  glycan array binding signal (z-score): -0.173
Man(a1-2)Man(a1-3)Man
  glycan array binding signal (z-score): 0.577
